# Measured values taken from PubChem BioAssay AID504467 (National Center for Advancing Translational Sciences (NCATS), 2011).
# In all, about 330,000 compounds went through this assay and about 7,700 (2.3%) were called active. Inconclusive means that the source gave no clear call. Such entries were picked first, then a sample of the others. Calls follow the shape of the dose curve; as a rule, active = well fitted inhibition curve with a large enough effect; inconclusive = small, poorly fitted or top-dose-only effect, or effect the other way; inactive = flat fitted curve, though single readings scatter. Potencies beside an inconclusive call are fits to weak or partial responses and may not hold up.
# Assay: qHTS screen for small molecules that inhibit ELG1-dependent DNA repair in human embryonic kidney (HEK293T) cells expressing luciferase-tagged ELG1; also: nearly all actives have a fitted effect of over 55% in size
# Settings: HEK293T ELG1-luciferase reporter, luminescence, 16 h, DNA damage induced by 5-fluorouridine; activity change, negative = inhibition: at 46.1 µM (top of the series)
# In short: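 DMSO vehicle served as the neutral condition. Each well held 2,000 cells given 5-fluorouridine plus compound; after 16 hr at 37 °C/5% CO2, ONE-Glo was added and luciferase measured 30 min later.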
# % is scaled to controls: 0 for no effect and ±100 for the full control effect; potency is read from the fitted curve at half-maximal effect.
SMILES,"activity change, negative = inhibition",Potency
CN(C)c1ccc(/C=C2\C(=O)NC(=O)N(Cc3ccc(F)cc3)C2=O)cc1,inactive: 15.7%,
N#CC(C#N)=Cc1cccnc1,inactive: 10.9%,
COc1ccc(CNCCc2ccc3c(c2)OCO3)cc1Br,,"inconclusive: 29.1 µM [inhibitor, single point]"
COc1ccccc1CCNC1CCC(C(C)(C)C)CC1 (stereo not drawn),,"inconclusive: 16.4 µM [inhibitor, partial curve]"
CCCC1(CCC)C(=O)NC(=Nc2ccccc2)NC1=O,inactive: 4.03%,
CCN(CC)C(=O)c1ccc(NC(=O)c2ccc(-c3nn(C)c(=O)c4ccccc34)cc2)cc1,inactive: -10.8%,
O=[N+]([O-])c1ccc(N2CCOCC2)c2ccncc12,,"inconclusive: 11.6 µM [inhibitor, partial curve]"
O=c1[nH]c(O)c(/C=C2\C=Nc3ccc(OCc4ccccc4)cc32)c(=O)[nH]1,,"inconclusive: 0.231 µM [activator, partial curve, poor fit]"
COc1ccc(-c2noc(=O)n2Cc2cc(C)ccc2C)cc1,,"inconclusive: 2.91 µM [inhibitor, full curve]"
N#CC1=C(N)Oc2c(c(=O)oc3ccccc23)C1c1ccc([N+](=O)[O-])o1 (stereo not drawn),,"inconclusive: 32.6 µM [activator, partial curve, poor fit]"
CCC(=NCc1cccnc1)c1c(O)n(-c2ccccc2)c(=O)[nH]c1=O,inactive: 10.1%,
COc1cccc(-c2nn(CCC#N)cc2C(=O)Nc2ccccc2Cl)c1,,"inconclusive: 29.1 µM [inhibitor, single point]"
Cc1ccc(O)c(C)c1,inactive: 6.76%,
c1ccc(-c2ccc(-c3[nH]ncc3CN3CCC(N4CCSCC4)CC3)cc2)cc1,,"inconclusive: 13 µM [activator, partial curve]"
Cc1cc(OC(=O)N(C)C)n(-c2ccccc2)n1,inactive: -13.3%,
CC1CCC(C(C)C)C(OC(=O)Cn2c(COc3ccccc3)[n+](C)c3ccccc32)C1 (stereo not drawn),,"inconclusive: 29.1 µM [inhibitor, single point]"
C[C@@H]1NCCc2cc(O)c(O)cc21,inactive: 19.9%,
COc1ccc(OCC#CCN2CCNCC2)cc1,,"inconclusive: 29.1 µM [activator, single point]"
CCN1/C(=C\C=C\C2=[N+](CC)c3ccccc3C2(C)C)C(C)(C)c2ccccc21,,active: 2.31 µM
COc1cc(C(=O)OC2C[C@H]3CC[C@@H](C2)N3C)ccc1O (stereo partly drawn),inactive: -6.23%,
O=c1[nH]c(=O)n(CCC2=CCCCC2)c(O)c1/C=N/Nc1cccc2ccccc12,inactive: -18.7%,
C[C@]12CCC(=O)C=C1CCC1C2CC[C@@]2(C)C1CC[C@@H]2O (stereo partly drawn),inactive: 0%,
O=C(Nc1ccncc1)c1cccn(Cc2ccccc2)c1=O,,active: 3.26 µM
COC(=O)c1ccc(N=C(c2ccccc2)c2c(O)n(C)c(=O)n(C)c2=O)cc1,,"inconclusive: 32.6 µM [inhibitor, single point]"
CC12CC[C@H]3[C@@H](CCC4(O)C[C@H](O)CCC34/C=N/NC(=O)c3ccccc3Cl)C1(O)CCC2C1=CC(=O)OC1 (stereo partly drawn),inactive: -2.56%,
COc1ccc(Cc2nccc3cc(OC)c(OC)cc23)cc1OC,inactive: -11.7%,

SMILES,"activity change, negative = inhibition",Potency
COc1ccc(C(=O)C2CCCN(Cc3cccc(C)n3)C2)c(OC)c1 (stereo not drawn),,"inconclusive: 16.4 µM [inhibitor, partial curve]"
CCCc1nc2ccc(Br)cc2c(=O)n1-c1ccc([N+](=O)[O-])c(C(F)(F)F)c1,,"inconclusive: 16.4 µM [inhibitor, partial curve]"
O=C(N/N=C/c1c(O)n(CCC2=CCCCC2)c(=S)[nH]c1=O)c1ccccc1,,"inconclusive: 20.6 µM [activator, partial curve]"
CCOC(=O)c1c(C)[nH]c(C(=O)C(C)N2CCCC2)c1C (stereo not drawn),inactive: -15.6%,
Cc1nc(Cl)sc1C(=O)Nc1ccc2ccccc2c1,,"inconclusive: 18.4 µM [activator, partial curve]"
COc1ccc(Oc2c(C)oc3cc(OC(=O)N(C)C)ccc3c2=O)cc1,inactive: 1.54%,
CCN(CCO)c1ccc(N=Cc2c(O)n(C)c(=S)[nH]c2=O)cc1,,"inconclusive: 13 µM [activator, single point]"
O=S(=O)(c1ccc(Cl)cc1)N1CN2CCN(C2)C1,inactive: 14.1%,
O=c1[nH]c(=O)n(CCC2=CCCCC2)c(O)c1C=NC1CCN(Cc2ccccc2)CC1,,"inconclusive: 2.06 µM [inhibitor, full curve]"
COc1ccc(CCNC(=O)COC(=O)Cc2ccccc2)cc1,inactive: -0.382%,
O=C(Cc1ccccc1)NC(Cc1ccc(Cl)cc1)C(=O)O (stereo not drawn),inactive: -7.13%,
N#CCCn1cc(C(=O)Nc2ccc([N+](=O)[O-])cc2)c(-c2ccc3c(c2)OCCO3)n1,,"inconclusive: 18.4 µM [inhibitor, single point]"
O=C(Nc1ccc(-c2nc3ccccc3c(=O)o2)cc1)c1ccco1,,"inconclusive: 18.4 µM [activator, partial curve, poor fit]"
COC(=O)C1=C(c2cccc(C#N)c2)C[C@@H]2CC[C@H]1N2C(=O)N1CCCC1,inactive: 29.9%,
CCCCCCCn1c(=O)c(C(=O)Nc2cnccn2)c(O)c2ccccc21,,"inconclusive: 2.91 µM [inhibitor, partial curve]"
O=C1CN=C(c2ccccc2)c2ccccc2N1Cc1ccc(C(F)(F)F)cc1,inactive: -6.11%,
O=c1[nH]c(O)c(N=Nc2ccc(SC(F)F)cc2)c(=O)[nH]1,,"inconclusive: 18.3 µM [activator, partial curve]"
N=C1c2ccccc2CN1NC(=O)c1ccc(Br)o1,,"inconclusive: 20.6 µM [activator, single point]"
O=C(CN1CCOCC1)c1ccc2cc[nH]c2c1,,"inconclusive: 18.4 µM [activator, single point]"
O=C(c1ccc(-c2ccccc2)c(F)c1)C1CCCN(CCO)C1 (stereo not drawn),inactive: 11.6%,
COc1cc(OC)c(OC)cc1CNCCc1ccc(F)cc1,inactive: -6.08%,
CN(C)C(=O)Oc1ccc(Br)cc1C(=O)Nc1ccc(F)c(Cl)c1,inactive: -17.3%,
COc1ccc(Cn2c(N)c(C(=O)NCc3ccco3)c3nc4ccccc4nc32)cc1OC,,"inconclusive: 20.6 µM [inhibitor, single point]"
CCC(=NCCO)c1c(O)n(C2CCCCC2)c(=O)[nH]c1=O,,"inconclusive: 29.1 µM [activator, single point]"
COc1ccc(C(Nc2ccccc2)P(=O)(Oc2ccccc2)Oc2ccccc2)cc1 (stereo not drawn),,"inconclusive: 1.64 µM [inhibitor, full curve]"
Cc1ccc(CC(=O)N2CCN(C)CC2)cc1,,"inconclusive: 20.6 µM [activator, single point]"

SMILES,"activity change, negative = inhibition",Potency
CC(C)OP(=O)(Oc1ccc(C(O)C(Cl)(Cl)Cl)cc1)OC(C)C (stereo not drawn),,active: 18.3 µM
CC1CCCN(CC(=O)c2ccc(Cl)c(Cl)c2)C1 (stereo not drawn),inactive: 8.52%,
O=C(COc1ccccc1)N1CCN(CC(O)COc2ccccc2)CC1 (stereo not drawn),inactive: 1.12%,
O=C(OCC(=O)c1ccc([N+](=O)[O-])cc1)/C(=C\c1ccc(Cl)cc1)NC(=O)c1ccccc1,inactive: -3.64%,
O=C1C2CCN(CC2)[C@@H]1Cc1ccc2ccccc2c1O,,"inconclusive: 20.6 µM [activator, single point]"
CCC(=O)N1N=C2C3CCN(CC3)C2C1c1ccc(C)cc1 (stereo not drawn),inactive: 2.4%,
CCN(CC)C(=O)c1ccc(NC(=O)COc2ccc(-c3nn(C)c(=O)c4ccccc34)cc2)cc1,,"inconclusive: 11.6 µM [inhibitor, partial curve]"
O=C(Cc1ccccc1F)N1CCN(CC(=O)N2CCCC2)CC1,inactive: 7.75%,
CC1CCSP(=O)(Oc2ccccc2)O1 (stereo not drawn),,"inconclusive: 3.66 µM [inhibitor, single point]"
Cc1cc(NC(=O)CCl)on1,inactive: -19.1%,
CNC(=O)COC(=O)c1ccc(-c2nc3ccccc3s2)s1,,"inconclusive: 16.4 µM [activator, partial curve]"
CN1Cc2c(c(C#N)c(N)n(C)c2=S)CC1(C)C,inactive: -2.97%,
COc1cc2[nH]c(=O)n(-c3ccc(C)cc3)c(=O)c2cc1OC,inactive: 1.38%,
O=C(C1CC(c2ccc(Cl)c(Cl)c2)=NO1)N1CCC2(CC1)OCCO2 (stereo not drawn),,"inconclusive: 9.2 µM [activator, partial curve]"
CCn1ccnc1CN1CCCC(C(=O)c2cc(C)c(OC)c(C)c2)C1 (stereo not drawn),,"inconclusive: 29.1 µM [inhibitor, single point]"
N#Cc1ccc(NC(=O)CN2CCN(C(=O)c3cccs3)CC2)cc1Cl,,"inconclusive: 16.4 µM [inhibitor, single point]"
CCN1CCN(/C=N/c2nc(C)cs2)CC1,,"inconclusive: 16.4 µM [activator, partial curve]"
CN(C)c1ccc(P(=O)(OC2CCCCC2)C(Nc2ccccc2)c2cccnc2)cc1 (stereo not drawn),,"inconclusive: 3.26 µM [inhibitor, partial curve]"
C=CCc1ccc(OC(=O)NC2CCCCC2)c(OC)c1,,"inconclusive: 23.1 µM [activator, partial curve, poor fit]"
NP(=O)(Oc1ccc(Cl)cc1)Oc1ccc(Cl)cc1,inactive: 13.2%,
CC(C)n1c(N2CCN(S(=O)(=O)c3cccc([N+](=O)[O-])c3)CC2)nc2ccccc21,,active: 23.1 µM
O=C(c1cc2nc(-c3ccccc3)cc(-c3ccccc3)n2n1)N1CCC2(CC1)OCCO2,,active: 20.6 µM
CCN1CCN(c2ccc(N)cc2C)CC1,inactive: 6.18%,
CCOP(=O)(OCC)C(NC(=O)c1cccc2ccccc12)C(Cl)(Cl)Cl (stereo not drawn),inactive: 12.7%,
OC(C#CCN1CCOCC1)(c1ccccc1)C1CCCC1 (stereo not drawn),,"inconclusive: 29.1 µM [activator, single point]"
O=c1c2ccccc2ccc2ccc(P(=O)(O)O)cc12,,"inconclusive: 14.6 µM [activator, partial curve, poor fit]"
